The record followed here is article PMC6562811.

These are yes or no findings as the source states them, for the method shown. Binding seen in cells or lysates may run through a third protein. These calls come from enrichment with a bait or labelling near it, and not all partners need be listed. No binding means not detected with the bait.

The target of this test is Twin-StrepII-HA-Beclin 1-WT, Q14457. In words: affinity purification with mass spectrometry; Twin-StrepII-HA-tagged Beclin 1 baits purified on Strep-Tactin beads from extracts of stable HEK293 lines induced with 2 ug/mL tetracycline for 24 h; cells in full medium or amino-acid starved for 2 h; three biological replicates; SAINTexpress, Bayesian FDR < 0.05, eGFP runs as control. Particulars: remark: other sources report otherwise.

B1: Ambra 1, Q9C0C7 1-1298 (protein)
chain: MKVVPEKNAVRILWGRERGARAMGAQRLLQELVEDKTRWMKWEGKRVELPDSPRSTFLLAFSPDRTLLASTHVNHNIYITEVKTGKCVHSLIGHRRTPWCVTFHPTISGLIASGCLDGEVRIWDLHGGSESWFTDSNNAIASLAFHPTAQLLLIATANEIHFWDWSRREPFAVVKTASEMERVRLVRFDPLGHYLLTAIVNPSNQQGDDEPEIPIDGTELSHYRQRALLQSQPVRRTPLLHNFLHMLSSRSSGIQVGEQSTVQDSATPSPPPPPPQPSTERPRTSAYIRLRQRVSYPTAECCQHLGILCLCSRCSGTRVPSLLPHQDSVPPASARATTPSFSFVQTEPFHPPEQASSTQQDQGLLNRPSAFSTVQSSTAGNTLRNLSLGPTRRSLGGPLSSHPSRYHREIAPGLTGSEWTRTVLSLNSRSEAESMPPPRTSASSVSLLSVLRQQEGGSQASVYTSATEGRGFPASGLATESDGGNGSSQNNSGSIRHELQCDLRRFFLEYDRLQELDQSLSGEAPQTQQAQEMLNNNIESERPGPSHQPTPHSSENNSNLSRGHLNRCRACHNLLTFNNDTLRWERTTPNYSSGEASSSWQVPSSFESVPSSGSQLPPLERTEGQTPSSSRLELSSSASPQEERTVGVAFNQETGHWERIYTQSSRSGTVSQEALHQDMPEESSEEDSLRRRLLESSLISLSRYDGAGSREHPIYPDPARLSPAAYYAQRMIQYLSRRDSIRQRSMRYQQNRLRSSTSSSSSDNQGPSVEGTDLEFEDFEDNGDRSRHRAPRNARMSAPSLGRFVPRRFLLPEYLPYAGIFHERGQPGLATHSSVNRVLAGAVIGDGQSAVASNIANTTYRLQWWDFTKFDLPEISNASVNVLVQNCKIYNDASCDISADGQLLAAFIPSSQRGFPDEGILAVYSLAPHNLGEMLYTKRFGPNAISVSLSPMGRYVMVGLASRRILLHPSTEHMVAQVFRLQQAHGGETSMRRVFNVLYPMPADQRRHVSINSARWLPEPGLGLAYGTNKGDLVICRPEALNSGVEYYWDQLNETVFTVHSNSRSSERPGTSRATWRTDRDMGLMNAIGLQPRNPATSVTSQGTQTLALQLQNAETQTEREVPEPGTAASGPGEGEGSEYGASGEDALSRIQRLMAEGGMTAVVQREQSTTMASMGGFGNNIIVSHRIHRSSQTGTEPGAAHTSSPQPSTSRGLLPEAGQLAERGLSPRTASWDQPGTPGREPTQPTLPSSSPVPIPVSLPSAEGPTLHCELTNNNHLLDGGSSRGDAAGPRGEPRNR
On to B1, for which the binding entry was “no binding”.
